The target of assay [1] is T1, Legionella pneumophila acetyl-polyamine aminohydrolase (Legionella pneumophila).
T1 sequence: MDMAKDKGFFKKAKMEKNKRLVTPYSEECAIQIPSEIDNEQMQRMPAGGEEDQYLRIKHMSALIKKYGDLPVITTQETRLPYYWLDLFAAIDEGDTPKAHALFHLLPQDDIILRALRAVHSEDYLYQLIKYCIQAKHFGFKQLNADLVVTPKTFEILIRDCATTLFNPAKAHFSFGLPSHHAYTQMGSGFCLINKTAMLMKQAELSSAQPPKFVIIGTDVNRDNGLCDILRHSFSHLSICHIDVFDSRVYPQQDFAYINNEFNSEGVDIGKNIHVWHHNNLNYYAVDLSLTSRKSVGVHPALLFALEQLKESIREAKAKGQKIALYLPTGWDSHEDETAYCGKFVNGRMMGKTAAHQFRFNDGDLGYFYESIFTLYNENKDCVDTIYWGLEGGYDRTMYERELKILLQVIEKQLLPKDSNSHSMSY
The assay is described as follows: SEC; both purified. Background: SEC sorts molecules by how far they enter the pores of the column.

Assay [2] has as its target T2, Legionella cherrii acetyl-polyamine aminohydrolase (Legionella cherrii).
T2 sequence: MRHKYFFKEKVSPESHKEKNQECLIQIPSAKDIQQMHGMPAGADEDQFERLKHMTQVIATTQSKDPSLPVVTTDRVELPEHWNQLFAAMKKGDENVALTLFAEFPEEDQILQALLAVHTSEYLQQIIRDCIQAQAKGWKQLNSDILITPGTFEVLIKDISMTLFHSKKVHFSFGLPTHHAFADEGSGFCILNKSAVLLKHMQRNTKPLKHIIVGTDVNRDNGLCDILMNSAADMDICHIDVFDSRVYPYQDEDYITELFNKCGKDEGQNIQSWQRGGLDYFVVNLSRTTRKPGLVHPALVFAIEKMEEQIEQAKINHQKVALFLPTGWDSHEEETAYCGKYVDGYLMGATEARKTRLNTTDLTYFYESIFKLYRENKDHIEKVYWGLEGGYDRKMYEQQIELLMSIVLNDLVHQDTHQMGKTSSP
The experiment in a line: SEC; both purified.

These are yes or no findings as the source states them, for the method shown.

B1: Legionella pneumophila acetyl-polyamine aminohydrolase (enzyme, UniProt A0A2S6EWV0 1-426)
chain: T1 sequence
B1: the binding result in assay [1] is “no binding (tested: 5 mg/ml)”.

B2: Legionella cherrii acetyl-polyamine aminohydrolase (enzyme, UniProt A0A0W0SGS1 1-425)
chain: T2 sequence
On to B2, for which the binding result in assay [2] is on record as “no binding (tested: 5 mg/ml)”.

Values taken from article PMC11532494 (Nature Communications, 2024).
